# Laboratory results from publication PMC4912613, “A broad analysis of resistance development in the malaria parasite” (Nature Communications, 2016).
# Columns and labels:
# Assay type in all cases: cell-based, Plasmodium falciparum
# [1] = tested on: CYTbQi (cytb G33A, parent Dd2); assay: Cross-resistance EC50 assay, CYTbQi; conditions: SYBR green 72 hour assay, synchronized parasites, 384-well format
# Excerpt: (§1) To evaluate potential overlapping activity against known antimalarial drug targets, we performed dose-response studies with each compound against our assembled set of drug-resistant lines and their corresponding parents, in an asexual blood stage proliferation assay (Table 1). Comparisons were made to the drug-sensitive strain 3D7 when a parent was unavailable (TM90C2A, W2 and Dd2). As laboratories conducted EC50 assays with different strains and protocols, all comparisons were made between assays from the same laboratory and under the same assay conditions. Compounds displaying >5-fold EC50 shifts relative to the parent or sensitive strain were flagged as having potentially non-novel targets. Average fold shifts per strain ranged from 0.82 to 2.34, with a median of 1.23 indicating there was not common resistance to any one resistant clone. No resistance patterns were observed when classifying the compounds based on chemical structure, but this was not surprising given the diversity of compounds chosen. On the other hand, given that these confirmed compounds were derived from larger unconfirmed hit lists to which some filtration criteria may have been applied (for example, elimination of obvious dihydrofolate reductase inhibitors[32]), some[10][11][12][13] pre-existing bias may exist in the set. […]
# (§2) Alternatively, a SYBR Green-based proliferation approach was used for the 72-h assay, as previously described. Briefly, a culture of either synchronized or asynchronous parasitized RBCs (0.3% parasitemia and 4% haematocrit) in screening medium (identical to supplemented medium above except no serum was added) was exposed to serial drug dilutions. Plates were incubated at 37 °C and gassed with 93% N2, 4% CO2 and 3% O2 for 72 h. Following incubation, 10 × SYBR Green I (Invitrogen; supplied in 10,000 × concentration) in lysis buffer ([…], 5 mM EDTA, 0.16% Saponin wt per vol and 1.6% Triton X vol per vol) was added to the wells and the plates were incubated overnight at room temperature before plate reading. EC50 assays were repeated three times, taking the average EC50 value from each assay set, and removing any outliers using a single iteration of Grubbs' test, eliminating values with z-scores above the critical z-value (α=0.05). The raw EC50 values for synchronized parasites assayed in a 384-well format are listed in Supplementary Data 4. The raw EC50 values for asynchronous parasites assayed in a 96 or 1536-well format are listed in Supplementary Data 5.
# (§3) EC50 values for each strain were compared with those of the corresponding parent strain to determine fold-shift changes and identify resistance. To minimize the cause variance between assays, all comparisons were conducted between strains assayed under identical conditions. A one-way ANOVA followed by a Dunnet's post-test was conducted in GraphPad Prism to identify significant changes between the parent and resistant strain.
# [2] = tested on: GNF156R (PfCARL L830V, S1076I and M81I, parent Dd2); assay: Cross-resistance EC50 assay, GNF156R; conditions: SYBR green 72 hour assay, asynchronized parasites, 96-well or 1536-well format
# Excerpt: as §1, §2, §3
# [3] = tested on: PfATP4-Mut2 (PfATP4 P412L, parent W2); assay: Cross-resistance EC50 assay, PfATP4-Mut2; conditions: hypoxanthine 48-hour assay; synchronized parasites; 96-well format; strain PfATP4 Mut2
# Excerpt: To evaluate potential overlapping activity against known antimalarial drug targets, we performed dose-response studies with each compound against our assembled set of drug-resistant lines and their corresponding parents, in an asexual blood stage proliferation assay (Table 1). Comparisons were made to the drug-sensitive strain 3D7 when a parent was unavailable (TM90C2A, W2 and Dd2). As laboratories conducted EC50 assays with different strains and protocols, all comparisons were made between assays from the same laboratory and under the same assay conditions. Compounds displaying >5-fold EC50 shifts relative to the parent or sensitive strain were flagged as having potentially non-novel targets. Average fold shifts per strain ranged from 0.82 to 2.34, with a median of 1.23 indicating there was not common resistance to any one resistant clone. No resistance patterns were observed when classifying the compounds based on chemical structure, but this was not surprising given the diversity of compounds chosen. On the other hand, given that these confirmed compounds were derived from larger unconfirmed hit lists to which some filtration criteria may have been applied (for example, elimination of obvious dihydrofolate reductase inhibitors[32]), some[10][11][12][13] pre-existing bias may exist in the set.
# The 48-h assay was carried out in a 96-well format following standard methods using the ^3H-hypoxanthine incorporation assay. The raw EC50 values corresponding to this assay can be found in Supplementary Data 3. Briefly, this assay relies on the parasite incorporation of labelled hypoxanthine that is proportional to P. falciparum growth. A culture of parasitized RBCs (0.5% parasitemia with a percentage of ring stage higher than 70% of total parasitemia, 2.0% haematocrit) in RPMI-1640, […] and 5 μM hypoxanthine was exposed to drug serial dilutions. Plates were incubated for 24 h at 37 °C, 5% CO2, 5% O2 and 90% N2. After 24 h of incubation, ^3H-hypoxanthine was added and plates were incubated for an additional 24-h period. After that, parasites were harvested on a glass fibre filter using a TOMTEC Cell Harvester 96. Filters were dried and melt-on scintillator sheets were used to determine the incorporation of ^3H-hypoxanthine. Radioactivity was measured using a microbeta counter. Data were normalized using the incorporation of the positive (parasitized RBCs without drug) and negative (same culture with artesunate at 2 μM) controls. All assays were conducted in triplicate using three independently grown cultures, and EC50 values were determined using the XLfit add-in module for Excel (version 2.3.1) from Grafit (version 5.3.1.3), where parameter h is the assay hill slope, x is the compound concentration and y is the inhibition of growth effect. The XLfit equation is: […]
# as §2, with “5. […]” for “5.”
# PfCRT-Q352R (parent Dd2) = assay: Cross-resistance EC50 assay, PfCRT-Q352R; conditions: SYBR green 72 hour assay, synchronized parasites, 384-well format
# Excerpt: as §1, §2, §3
# [4] = tested on: ProRS (prolyl t-RNA synthetase L482H, parent Dd2); assay: Cross-resistance EC50 assay, ProRS; conditions: SYBR green 72 hour assay, synchronized parasites, 384-well format
# Excerpt: as §1, §2, §3
# [5] = strain PfCRT:Q352R (Dd2 parent)
SMILES,CYTbQi (Dd2 Parent) Average Hill Slope ([1]; strain CYTbQi (Dd2 parent)),GNF156R (Dd2 Parent) Average Hill Slope [2],PfATP4 Mut2 (W2F6 Parent) Average Hill Slope [3],PfCRT:Q352R (Dd2 Parent) Average Hill Slope (PfCRT-Q352R (parent Dd2); [5]),ProRS (Dd2 Parent) Average Hill Slope ([4]; strain ProRS (Dd2 parent)),CYTbQi (Dd2 Parent) Average Hill Slope ([1]; CYTbQi strain),PfCRT:Q352R (Dd2 Parent) Average Hill Slope (PfCRT-Q352R (parent Dd2); PfCRT:Q352R strain),ProRS (Dd2 Parent) Average Hill Slope ([4]; ProRS strain)
Brc1ccc(Nc2nc3ccccc3nc2Nc2ccc(Br)cc2)cc1 [MMV007224],5.19,6.90,1.37,6.48,5.37,–,–,–
Cc1ccc(Oc2ncccc2C(=O)Cc2cccc3cccnc23)c(C)c1 [MMV020746],4.79,1.37,1.16,3.48,5.00,–,–,–
CCCOCc1cc(CN2CCN(c3cccc(Cl)c3)CC2)c(O)c2ncccc12 [MMV000787],5.93,1.93,1.63,3.31,3.95,–,–,–
Cc1ccc(S(=O)(=O)n2cc(-c3ccnc(N)c3)c3cc(Br)cnc32)cc1 [MMV024114],3.30,1.44,1.07,5.19,3.28,–,–,–
COc1cc(-c2nc(-c3ccccc3)c(-c3ccccc3)[nH]2)ccc1OCCN(C)C [MMV027496],25.7,1.31,1.41,16.9,25.6,–,–,–
COc1ccc2c3c([nH]c2c1)[C@H](CO)N(C(C)=O)CC31CCN(C(=O)Nc2ccccc2F)CC1 [MMV673482],–,1.19,1.43,–,–,9.66,6.95,2.21
COc1ccc(-c2nc(NC(=O)Cc3ccc4c(c3)OCCO4)sc2C)cc1 [MMV019719],5.22,1.25,1.24,3.68,2.81,–,–,–
COC(=O)c1ccc(C2C3=C(O)CC(c4ccc(F)cc4)CC3=Nc3ccccc3N2C(=O)c2ccccc2)cc1 (stereo not shown) [MMV011438],2.44,1.38,2.72,2.38,2.61,–,–,–
COc1cc(-c2nc(-c3ccccc3)c(-c3ccccc3)[nH]2)cc(OC)c1O [MMV020750],7.96,3.05,0.93,6.13,7.61,–,–,–
O=C(Nc1ccc(Cl)c(Cl)c1)Nc1ccc(Cl)c(Cl)c1 [MMV665852],6.12,3.80,2.29,4.49,2.42,–,–,–
OC(CNC1CCCCC1)Cn1c2ccccc2c2ccccc21 (stereo not shown) [MMV009063],2.99,0.99,0.81,2.28,1.50,–,–,–
COc1cc2cc(C(=O)Nc3ccccc3)c(N)nc2cc1OC [MMV006767],6.95,0.69,0.70,4.09,3.25,–,–,–
COc1ccc(N2CCN(C(CNC(=O)C3CCCCC3)c3ccc4c(c3)OCO4)CC2)cc1 (stereo not shown) [MMV019662],2.36,2.07,1.12,1.78,2.55,–,–,–
OC(CNC1CCCCC1)Cn1c2ccc(I)cc2c2cc(I)ccc21 (stereo not shown) [MMV665882],1.86,1.81,0.61,2.07,1.98,–,–,–
CC(C)c1cccc(C(NC(=O)C2Cc3ccccc3CN2C(=O)c2cccc(N3CCOCC3)c2)C2CCCC2)c1 (stereo not shown) [MMV028038],3.91,1.39,1.11,3.51,3.91,–,–,–
Cc1nc2ccc3ccc(CNc4ccc(C(=O)CC(CCC(=O)O)C(=O)O)cc4)cc3c2c(=O)[nH]1.Cl (stereo not shown) [MMV027634],15.1,1.90,0.87,6.51,4.78,–,–,–
Cc1c(C)n(Cc2ccc(F)cc2)c2ccc(C(=O)NCc3ccco3)cc12 [MMV008149],1.36,1.03,2.71,1.09,0.92,–,–,–
